Where a name gives a salt, the structure may show the parent alone. The list shows a part of the results. Single values are uncertain here, since repeats match poorly.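 Human kidney-derived cells stably carry a construct in which eight TEAD-binding elements drive luciferase, measured by luminescence in a drug-repurposing library screen. A hit is any compound whose signal exceeds the plate mean by more than five robust Z scores.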
Tested on: HEK293A TEAD-LUC reporter
Assay: TEAD-luciferase reporter activity (YAP activation), robust Z score vs plate; higher = stronger YAP/TEAD activation
Conditions: 24 h

Row | SMILES | TEAD-luciferase reporter activity (compound concentration: 200 nM) | TEAD-luciferase reporter activity (compound concentration: 2 uM) | TEAD-luciferase reporter activity (compound concentration: 10 uM)
1 | COC1CCC(OC(=O)[C@@H]2C[C@@H]3c4cccc5c4c(cn5C(C)C)C[C@H]3N(C)C2)CC1 (some centres undefined) | inactive: -0.988 | inactive: -0.945 | inactive: 0.337
2 | CN(C)C(C)(CO)Cc1ccc(Cl)c(Cl)c1 (centres undefined) | inactive: 1.25 | inactive: -0.188 | inactive: 3.62
3 | CCCCCc1cc(O)c2c(c1)OC(C)(C)[C@@H]1CCC(C)=C[C@@H]21 [d9-Tetrahydrocannabinol solution] | inactive: -1.11 | – | inactive: 1.88
4 | C[C@]12N[C@H](Cc3ccccc31)c1ccccc12 [dizocilpine] | inactive: -2.85 | inactive: -0.594 | inactive: -1.52
5 | C=CCN1CC[C@]23c4c5ccc(O)c4O[C@H]2[C@@H](O)C=C[C@H]3[C@H]1C5 [Nalorphine hydrochloride] | inactive: -2.07 | – | inactive: 0.481
6 | NCC(CC(=O)O)c1ccc(Cl)cc1 (racemic) [(+-)-Baclofen] | inactive: 0.4 | – | inactive: -0.51
7 | COc1ccc(CNc2cn[nH]c(=O)c2Cl)cc1OCC(=O)N1CCN(Cc2ccccc2)CC1 | inactive: -0.952 | inactive: 0.375 | inactive: 3.94
8 | CNC(C)CC1CCCCC1 (centres undefined) | inactive: 0.187 | inactive: -0.967 | inactive: 0.329
9 | CCOC(=O)C(c1ccccc1)C1CCCCN1 (centres undefined) [Ethylphenidate] | inactive: 1.04 | inactive: -1.64 | inactive: 0.945
10 | CN1CCC(C(=O)c2cccc(NC(=O)c3c(F)cc(F)cc3F)n2)CC1 [lasmiditan] | inactive: -1.33 | inactive: 2.66 | inactive: -0.356
11 | CC(=O)[C@H]1CC[C@H]2[C@@H]3CC[C@H]4C[C@@H](O)CC[C@]4(C)[C@H]3CC[C@]12C [Sepranolone] | inactive: -0.381 | inactive: -0.689 | inactive: 0.757
12 | O=C1CN2CCOC2(c2ccccc2F)c2cc(Cl)ccc2N1CCO (centres undefined) | inactive: -0.989 | inactive: -1.59 | active: 6.38
13 | O=C1CN=C(c2ccccc2Cl)c2cc([N+](=O)[O-])ccc2N1 [Clonazepam] | inactive: -2.44 | – | inactive: -0.73
14 | O=C1NC2(CCCCC2)C(=O)N1CCN(CCCl)CCCl | inactive: -1.21 | inactive: -0.658 | inactive: -1.32
15 | COc1cc2c(cc1OC)-c1c3c(cc4c1[C@H](C2)N(C)CC4)OCO3 | inactive: -0.169 | inactive: -0.37 | inactive: -0.985
16 | CS(=O)(=O)OCCN(CCCl)c1ccc(C(=O)O)cc1 | inactive: 0.399 | inactive: -0.678 | inactive: -1.82
17 | COc1ccc2c(c1)c(CCN(C)C)cn2S(=O)(=O)c1ccccc1 | inactive: -1.13 | inactive: -1.26 | active: 5.54
18 | C=CCN1C(=O)CN2CCOC2(c2ccccc2F)c2cc(Cl)ccc21 (centres undefined) | inactive: -0.235 | inactive: -1.42 | inactive: 0.559
19 | C[C@@H]1CC[C@H](C(O)C(F)(F)F)N1c1ccc2[nH]c(=O)cc(C(F)(F)F)c2c1 (some centres undefined) | inactive: -0.724 | inactive: 0.577 | inactive: 3.29
20 | Fc1ccc(C2=CCN(CCCCn3cncn3)CC2)cc1 | inactive: -1.68 | inactive: -0.543 | inactive: 2.81

Row | SMILES | TEAD-luciferase reporter activity (compound concentration: 200 nM) | TEAD-luciferase reporter activity (compound concentration: 2 uM) | TEAD-luciferase reporter activity (compound concentration: 10 uM)
21 | CO[C@@H]1[C@H](OC(=O)NC(=O)CCl)CC[C@]2(CO2)[C@H]1[C@@]1(C)O[C@@H]1CC=C(C)C | inactive: -1.5 | inactive: -1.03 | inactive: 0.773
22 | Cc1cccc(Cc2c[nH]cn2)c1C | – | inactive: -0.684 | –
23 | Cc1cccc(Cc2c[nH]cn2)c1C [Detomidine HCl] | inactive: 0.898 | – | inactive: -0.505
24 | Cc1cccc(Cc2c[nH]cn2)c1C [Detomidine hydrochloride] | – | inactive: -0.985 | –
25 | C=CC[C@]1(O)CC[C@H]2[C@@H]3CCC4=CCCC[C@@H]4[C@H]3CC[C@@]21C | inactive: -1.45 | inactive: -0.583 | inactive: 0.808
26 | CN(C(=O)Cc1cccc([N+](=O)[O-])c1)[C@H]1c2ccccc2C[C@@H]1N1CCCC1 [Niravoline] | inactive: -0.701 | inactive: -0.761 | inactive: -1.09
27 | CNC(C)C(O)c1ccccc1 (centres undefined) [ephedrine hydrochloride inj,D] | inactive: 0.118 | – | inactive: -0.641
28 | CNC(C)C(O)c1ccccc1 (centres undefined) [ephedrine hydrochloride inj] | – | inactive: -0.89 | –
29 | O=c1n(Cl)c(=O)n(Cl)c(=O)n1Cl | inactive: -1.13 | inactive: 0.0791 | inactive: 0.714
30 | CC(Cc1ccccc1)NCc1ccccc1Cl (centres undefined) | inactive: 0.378 | inactive: 0.726 | inactive: 3.03
31 | O=[N+]([O-])OCc1cccc(Cl)n1 | inactive: 0.331 | inactive: -1.75 | inactive: 0.113
32 | CN(C)C[C@@H]1CCCC[C@H]1c1cccc(O)c1 | inactive: -0.444 | inactive: -0.288 | inactive: 0.15
33 | CCC1=CC2C(C1)CC2(CN)CC(=O)O (centres undefined) [mirogabalin] | inactive: -0.429 | inactive: -0.0727 | inactive: 1.71
34 | O=C1N=C(NC2CC2)OC1c1ccccc1 (centres undefined) | inactive: 0.216 | inactive: -0.0488 | inactive: -0.175
35 | Cc1ccc(N2CCNCC2)c(S(=O)(=O)O)c1 | inactive: 0.661 | inactive: 1.22 | inactive: -0.558
36 | Clc1ccc2oc(C3CCNCC3)cc2c1 | active: 5.3 | inactive: -1.22 | inactive: -1.44
37 | OC(c1ccc(Cl)cc1)(c1ccc(Cl)cc1)C1CC1 | inactive: -0.376 | inactive: -1.42 | inactive: 3.12
38 | C[C@]12CCC(=O)C=C1[C@@H]1C[C@@H]1[C@@H]1[C@@H]2CC[C@@]2(C)[C@H]1CC[C@@]2(O)CCC(=O)O | inactive: -0.561 | inactive: -0.184 | inactive: 1.14
39 | CN1C2C[C@@H](OC(=O)c3c[nH]c4ccccc34)C[C@@H]1C1OC12 (some centres undefined) | inactive: -0.411 | inactive: -0.594 | inactive: -0.481
40 | O=C1Nc2ccc(Cl)nc2C(c2ccccc2Cl)=NC1O (centres undefined) | inactive: -0.584 | inactive: -1.65 | inactive: -0.91

Row | SMILES | TEAD-luciferase reporter activity (compound concentration: 200 nM) | TEAD-luciferase reporter activity (compound concentration: 2 uM) | TEAD-luciferase reporter activity (compound concentration: 10 uM)
41 | CN1OC2CCCC(=O)C2C1Cc1ccccc1 (centres undefined) | inactive: -0.59 | inactive: -0.496 | active: 13.3
42 | O=C(Nc1ccccc1-c1ccccc1)OC12CCN(CC1)CC2 | inactive: 1.13 | inactive: -0.241 | inactive: -1.7
43 | CCCCCCCCCCCCC/C=C/[C@@H](O)[C@@H](N)COP(=O)([O-])OCC[N+](C)(C)C [Sphingosylphosphorylcholine] | inactive: -0.869 | inactive: 0.245 | inactive: 1.58
44 | Cc1nn(C)c2c1C(c1ccccc1F)=NCC(=O)N2C [Zolazepam HCl] | inactive: 0.0189 | inactive: -1.36 | inactive: 0.725
45 | COCCn1c(C)c(C)s/c1=N\C(=O)C1C(C)(C)C1(C)C | inactive: -0.535 | inactive: 0.114 | inactive: 0.367
46 | CCOP(=S)(OCC)Oc1ccc2c(C)cc(=O)oc2c1 | inactive: -1.51 | inactive: -1.72 | inactive: 0.154
47 | CC1=C(CO)C2=C(C)C3(CC3)C(C)(O)C(=O)C2=C1 (centres undefined) [Irofulven] | inactive: -1.55 | inactive: -1.87 | inactive: -2.16
48 | O=P(O)(O)C(O)P(=O)(O)O | inactive: 0.444 | inactive: -0.401 | inactive: 1.46
49 | CS(=O)(=O)OCCN(CCBr)c1c(C(=O)NCCOP(=O)(O)O)cc([N+](=O)[O-])cc1[N+](=O)[O-] | inactive: -1.05 | inactive: -1.19 | inactive: -1.26
50 | CC1=NC(=O)[C@](CCN(C(C)C)C(C)C)(c2ccccc2)[C@H]2CCCCN12 [Actisomide] | inactive: 0.103 | inactive: 0.926 | inactive: 0.857
51 | Cc1cc(O)c2c(c1)OC(C)(C)C1=C2CC(C)CC1 (centres undefined) | inactive: -0.493 | inactive: -1.82 | inactive: 0.134
52 | C/C1=C/C(=O)O[C@@H]2C[C@@H](CC[C@H](C)/C=C\CC1)O[C@@](O)([C@@H]1CSC(=O)N1)C2 [Latrunculin B] | inactive: -1.61 | inactive: 1.27 | inactive: -1.4
53 | CC(=O)C[C@H]1CCCCN1 | inactive: -0.131 | inactive: -2.25 | inactive: -1.77
54 | Oc1ccc(Cl)cc1 | inactive: 3.49 | inactive: -1.33 | inactive: -0.99
55 | CCNC(C)Cc1cccc(SC(F)(F)F)c1 (centres undefined) | inactive: -0.81 | inactive: 0.15 | inactive: -0.929
56 | CC(=O)N1C2CCC1CN(C(C)C)C2 | inactive: -2.33 | – | active: 5.68
57 | O=C(O)COc1ccc(Cl)cc1 [metformin chlorphenoxyacetate] | inactive: 1.12 | inactive: -1.52 | inactive: 2.01
58 | COc1cc([C@@H]2c3cc4c(cc3[C@@H](O)[C@H]3COC(=O)[C@H]23)OCO4)cc(OC)c1O | inactive: -0.453 | – | inactive: 0.806
59 | COc1cc([C@@H]2c3cc4c(cc3[C@@H](O)[C@H]3COC(=O)[C@H]23)OCO4)cc(OC)c1O [4-Demethylpodophyllotoxin] | – | inactive: -2.64 | –
60 | Cc1cc(Nc2cc(N3CC(F)(C4CC4)C3)nc(O[C@H]3CCN(C(=O)c4cc(Cl)ccc4F)C3)n2)n[nH]1 | inactive: -0.981 | inactive: -1.63 | inactive: 0.657

Some of the entries so far, in markdown.

| Row | SMILES | TEAD-luciferase reporter activity (compound concentration: 200 nM) | TEAD-luciferase reporter activity (compound concentration: 2 uM) | TEAD-luciferase reporter activity (compound concentration: 10 uM) |
| --- | --- | --- | --- | --- |
| 51 | Cc1cc(O)c2c(c1)OC(C)(C)C1=C2CC(C)CC1 (centres undefined) | inactive: -0.493 | inactive: -1.82 | inactive: 0.134 |
| 52 | C/C1=C/C(=O)O[C@@H]2C[C@@H](CC[C@H](C)/C=C\CC1)O[C@@](O)([C@@H]1CSC(=O)N1)C2 [Latrunculin B] | inactive: -1.61 | inactive: 1.27 | inactive: -1.4 |
| 53 | CC(=O)C[C@H]1CCCCN1 | inactive: -0.131 | inactive: -2.25 | inactive: -1.77 |
| 54 | Oc1ccc(Cl)cc1 | inactive: 3.49 | inactive: -1.33 | inactive: -0.99 |

Source: the supplement of paper PMC10735217
